From patent US9428753B2, “Use of LXR antagonists for treatment of side effects of elevated glucocorticoid levels” (The Governing Council of the University of Toronto, priority 2013, dated 2016)
At least one structure is not confirmed: it was looked up by name or label, or the drawing left a doubt.

Key:
Pepck = Pepck gene expression in mouse primary hepatocytes; assay type: cell-based; conditions: Example 3; LXRβ−/− hepatocytes; 100 nM Dex alone
LXRα−/− mice = assay: In vivo 5 day Dex ± GSK2033 co-treatment study; parameters: species or system mouse
Description: LXRα−/− mice were treated with Vehicle (Veh), Dex (2.5 mg/kg) b.i.d. or GSK2033 40 mg/kg (once a day) along with Dex b.i.d. for 5 days. (A) Plasma glucose levels were measured by a colorimetric kit (Wako). (B) Spleen weights were measured at the time of sacrifice, and are presented normalized to body weight. (C) Liver Pepck, FOXO1, Pgc 1α, FGF21, GR and LXRβ gene expression measured by QPCR. Data represent the Avg±SEM, N=2-5. *P<0.05 by One way ANOVA, Student Newman Keuls.
Having observed promising results with GSK2033 co-treatment with Dex in-vitro (GSK2033-mediated suppression of GC-induced gluconeogenic side effects without affecting desirable immune suppression); a study was conducted, in which whole body LXRα−/− mice were treated with vehicle (Veh), 2.5 mg/kg bid (subcutaneous injection) Dex or Dex+40 mg/kg GSK2033 (once a day intraperitoneal injection) for 5 days, and sacrificed at lights on.

[1] = Dex group compared to Veh and Dex+GSK2033 group

C[C@@H]1C[C@H]2[C@@H]3CCC4=CC(=O)C=C[C@]4(C)[C@@]3(F)[C@@H](O)C[C@]2(C)[C@@]1(O)C(=O)CO [Dex, dexamethasone]
Pepck expression (Pepck): did not increase | plasma glucose (LXRα−/− mice; Dex 2.5 mg/kg bid s.c., 5 days, vs Veh or Dex+GSK2033 groups): significantly higher | spleen size (weight normalized to body weight) (LXRα−/− mice; Dex 2.5 mg/kg bid, 5 days, vs Veh): significantly smaller | liver FGF21 gene expression (LXRα−/− mice; [1]): trends of increased expression | liver PGC1α gene expression (LXRα−/− mice; [1]): trends of increased expression
